# According to patent EP0359714B1, “Diuretic factor” (SANDOZ AG, priority 1988, dated 1994):
# Not every detail of the peptide structures is certain; ends, links or a residue may be inferred. No end group written: not given here.
# Test system: M. sexta larvae
# Assay: In vivo bioassay in M. sexta (weight of water lost after injection)
# Parameters: species or system Manduca sexta
# Conditions: late fifth stadium larvae, approximately 9g; injected with 0.1 µg; 4 hour test period
substance,measurement,value
RMPSLSIDLPMSVLRQKLSLEKERKVHALRAAANRNFLNDI-NH2 [synthetic DF],fluid lost compared with controls which did not receive any DF,lost over twice as much fluid
